Measured values reported in paper PMC6093649.

Biological target: Chp2 chromodomain with the W199A mutation (Chp2-CD-W199A) (S. pombe)
Assay: ITC; MicroCal VP-ITC, 20°C; Chp2-CD protein in 20 mM KPO4 pH 6.8, 100 mM NaCl; H3K9me3 peptide injected into the protein in 1-μl aliquots at 3-min intervals; both purified

For ARTKQTARKSTGGKAPRY (trimethyl-lysine at position 9 (Lys[Me]3)) [K9-trimethylated histone H3 (H3K9me3) peptide (1–18)], the binding was “binds weakly”.

Results are given in words; binding and its absence hold for the method and conditions named. A result given as binding can be weak or reduced; the word gives no strength. Where a sequence is shown, tags or fusion partners need not be part of it.
